Test results: patent publication US8580977B2 (priority 2010, dated 2013)
Some results were stated once for a whole list of compounds, not compound by compound.

System: Du145, MCF7, and HCT-115
Assay: cytotoxicity against selected human cancer cell lines
Type: cell-based
Settings: Du145, MCF7, HCT-115
Description: IR spectra were measured on a Bruker EQUINOX 55/S FT-IR/NIR spectrophotometer (Ettlingen, DE). Optical rotations were determined on a Perkin-Elmer 241 instrument at the sodium D line (589 nm). High-resolution mass spectrometry (HRMS) analyses were acquired on an IonSpec HiRes MALDI FT mass spectrometer (Lake Forest, Calif.) for […] or on an Agilent 1100 series LC/MSD Trap SL for HRESIMS (Santa Clara, Calif.). NMR data were recorded on a Varian Unity Inova 400 or 500 MHz NMR spectrometer (Varian, Inc., Palo Alto, Calif.). ^1H and ^13C NMR chemical shifts were referenced to residual solvent signals: δH 7.26 ppm and […] for CDCl3. ^1H-^1H COSY, HMQC, HMBC, HETLOC, gHSQMBC, and gDQCOSY were performed using either standard Varian pulse sequences or literature pulse sequences (Uhrin et al., 1998; Williamson et al., 2000). High-performance liquid chromatography (HPLC) analysis was carried out on a Varian HPLC system equipped with ProStar 210 pumps and a photodiode detector. Mobile phases used were buffer A (H2O) and buffer B (CH3CN). Analytical and semipreparative HPLC columns used were Alltech Alltima C18 columns, 250×4.6 mm, 5 μm and 250×10 mm, 5 respectively. Cytotoxity assays and PP inhibition assays for TTN and related analogues were performed as previously described for compound TTM and related congeners (Ju et al., 2009). […]

Row | Compound | reduction of cytotoxicity relative to TTN
1 | CCC(C=CC(=O)O)=CC(O)CC(C)CC(C)CCC(O)C(C)C(=O)CC(O)C(C)C(C)OC(=O)CC(O)C1=C(C)C(=O)OC1=O [TTN D-3 (6)] | ≤ 3 fold
2 | CCC(C=CC(=O)O)=CC(=O)CC(C)CC(C)CCC(O)C(C)C(=O)CC(O)C(C)C(C)OC(=O)CC(O)C1=C(C)C(=O)OC1=O [TTN D-4 (7)] | ≤ 3 fold
